From PubChem BioAssay AID1487 (National Center for Advancing Translational Sciences (NCATS), 2009)
Screen size: about 200,000 compounds; about 25 (0.01%) were called active. Inconclusive results, whose numbers are uncertain, are shown with a selection of clear calls. Calls follow the shape of the dose curve; as a rule, active = well fitted inhibition curve with a large enough effect in the signal ratio, with a control signal flat (not every such curve was filed as active); inconclusive = small, poorly fitted or top-dose-only effect, or effect the other way, or a change in a side signal; inactive = flat fitted curve, though single readings scatter; the % refers to the signal ratio. Where the call is inconclusive, the potency comes from a doubtful curve fit.

assay: qHTS Assay for Modulators of Lamin A Splicing; details: HeLa LMNA splicing GFP/RFP minigene ratio, 48 h; ratio change, negative = inhibition: at 46.1 µM (top of the series) unless noted
How it was run: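 S3 HeLa stable clones carrying a lamin A-EGFP splicing minigene plus DsRed2 were seeded at 600 cells/well in Opti-MEM with 2% FBS, pin-dosed and incubated 48 h at 37°C. Acumen cytometry (488 nm) gave the GFP/RFP total-intensity ratio.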
% is scaled to controls: 0 for no effect and ±100 for the full control effect; potency is read from the fitted curve at half-maximal effect.

| Compound | ratio change, negative = inhibition | Potency |
| --- | --- | --- |
| COc1ccc(NC2=C(NCCO)C(=O)c3ccccc3C2=O)cc1 | inconclusive: -10.9% |  |
| Cc1ccc(-c2nn(-c3cccc([N+](=O)[O-])c3)c3c2cnc2ccc(F)cc23)cc1 | inactive |  |
| O=C(O)/C=C/C(=O)Nc1ccc(OC(F)(F)F)cc1Br | inconclusive: -21.2% [at 46 µM] |  |
| Cc1ccc(C)c(NC(=O)c2ccc(=O)n(Cc3ccc(F)cc3)c2)c1 | inconclusive: 1.14% [at 46 µM] |  |
| COc1ccc(C)cc1NC(=O)c1ccc2c(c1)N(Cc1cccc(Cl)c1)C(=O)c1ccccc1S2=O (centres undefined) | inactive |  |
| c1cncc(-c2cc(-n3ccnc3)ncn2)c1 | inactive |  |
| COCCNCCCOc1ccc(Cl)cc1Br | inconclusive: -2.59% [at 46 µM] |  |
| Cc1ccc(OC/C(O)=C(\C#N)c2nc3ccccc3s2)cc1 | inconclusive: -12.5% |  |
| O=C(CSc1ccc2c(c1)OCCO2)Nc1ccc(N2CCOCC2)cc1 | inactive |  |
| CCOc1ccc(CC(=O)NCCS(=O)(=O)N2CCN(c3ccccc3OC)CC2)cc1 | inconclusive: -13.2% [at 46 µM] |  |
| CN(C)CCNC(=O)Cc1ncc(C(F)(F)F)cc1Cl | inconclusive: 4.64% [at 46 µM] |  |
| O=C(COC(=O)c1ccccc1Nc1ccc(SC(F)F)cc1)NC1CC1 |  | inconclusive: 14.1 µM [falling, partial curve, poor fit] |
| CCOC(=O)c1cc(-c2ccccc2)n(CCC(=O)Nc2ccc(OC)c(Cl)c2)c1C | inconclusive: -1.26% [at 46 µM] |  |
| Cc1cccc(Cn2c(C)nc3c(N)c(C)c(C)cc32)c1 | inactive |  |
| COc1ccc(C2=CC(c3cc(OC)c(OC)c(OC)c3)NC(=S)N2)cc1 (centres undefined) |  | inconclusive: 35.5 µM [falling, single point] |
| O=C(CSc1ccccn1)c1ccc(F)cc1 | inactive |  |
| CCN(CC)S(=O)(=O)c1ccc(OC)c(NC(=O)CSc2ccccc2)c1 | inactive |  |
| CCOC(=O)c1csc(NC(=O)CSc2nnnn2-c2ccc(OC)cc2)n1 | inactive |  |
| Cc1nc(-c2ccccc2)c(-c2ccccc2)[nH]1 | inactive |  |
| COc1cc(CNc2ccc3[nH]c(=O)[nH]c3c2)ccc1OCC(=O)NC(C)(C)C | inactive |  |
| Oc1ccc(/C=C\c2cc(O)cc(O)c2)cc1 |  | inconclusive: 4.47 µM [inhibitor, partial curve] |

| Compound | ratio change, negative = inhibition | Potency |
| --- | --- | --- |
| Cc1sc(N/N=C/c2ccco2)nc1-c1ccccc1 | inconclusive: -19.1% |  |
| CCOC(=O)c1c(NC(=O)CCl)sc(C(=O)N(CC)CC)c1C |  | inconclusive: 12.6 µM [falling, partial curve] |
| COc1ccccc1N1C(=O)C2C3C=CC(C3)C2C1=O (centres undefined) | inactive |  |
| O=C(Nc1cccnc1)/C(N=Nc1cccnc1)=C(\O)c1ccccc1 | inactive |  |
| CN1CCC(=C2c3ccccc3C=Cc3ccccc32)CC1 | inconclusive: -41.4% |  |
| COc1ccc(N(CC(=O)NCc2ccc(C)cc2)S(=O)(=O)c2c(C)nn(C)c2C)cc1 | inconclusive: 0.855% |  |
| O=C(NCCOc1ccccc1F)c1ccccc1SCc1ccc(F)cc1 |  | inconclusive: 14.1 µM [fluorescent, single point] |
| Cc1nonc1C(=O)N/N=C/c1ccc(O)cc1O | inconclusive: 11.8% [at 46 µM] |  |
| Cc1ccc(NC(=O)C2CCN(c3nc4ccccc4[nH]3)CC2)cc1Cl | inconclusive: 0.599% [at 46 µM] |  |
| CCOC(=O)N1CCN(C(=O)CSc2ccc(-c3ccc(OC)cc3)nn2)CC1 | inactive |  |
| COc1ccc(-c2c(C)c3ccc(O)c(CN4CCN(C)CC4)c3oc2=O)cc1OC | inconclusive: -19.2% [at 46 µM] |  |
| Cc1ccccc1C(=O)Nc1nc2c(s1)CC(C(C)(C)C)CC2 (centres undefined) | inconclusive: -17.6% [at 46 µM] |  |
| Cc1cccc2sc(N(Cc3cccnc3)C(=O)C3CCCCC3)nc12 | inconclusive: -19.6% [at 46 µM] |  |
| CCn1c(SCc2ccccc2Cl)nc2nc3c(cc2c1=O)CCCC3 | inconclusive: -28.5% |  |
| COc1ccc(C2NC3=C(CCC3)C3(C#N)C4(N=C(N)C23C#N)OCCO4)cc1 (centres undefined) | inactive |  |
| Cc1nc2ccccc2nc1N1CCCCC1 | inconclusive: 9.53% |  |
| O=C(CSc1ccc([N+](=O)[O-])cc1)Nc1cccc(S(=O)(=O)Nc2ccccc2F)c1 | inactive |  |
| c1c2c(cc3sc(N4CCCCC4)nc13)OCCO2 | inconclusive: -34.2% |  |
| O=C(CCNS(=O)(=O)c1cccc2nonc12)NCCc1ccc(Cl)cc1 | inactive |  |
| O=C(c1ccco1)N1CCN(c2nc(C3CC3)nc3c2nnn3Cc2ccccc2Cl)CC1 |  | inconclusive: 35.5 µM [fluorescent, single point] |
| COc1ccc(NC(=O)Cn2cnc3c(nc4n3CCCCC4)c2=O)c(OC)c1 | inactive |  |

| Compound | ratio change, negative = inhibition | Potency |
| --- | --- | --- |
| COc1ccc(N2CCN(CCNC(=O)c3ccc4c(c3)[nH]c(=S)n3c5ccccc5nc43)CC2)cc1 | inconclusive: 7.47% [at 46 µM] |  |
| COC(=O)c1ccccc1NC(=O)CN1CCC(n2nnc3cc(C(F)(F)F)ccc32)CC1 | inactive |  |
| Cn1c(=S)[nH]c2scc(-c3cccs3)c2c1=O | inconclusive: 60.7% [at 46 µM] |  |
| CCn1c(=O)c2[nH]c(-c3ccccc3)nc2n(CC)c1=O | inconclusive: -3.54% |  |
| O=C1C2C3C=CC([C@@H]2C(=O)N1Cc1cccnc1)C31CC1 (some centres undefined) | inactive: 1.5% [at 0.0737 µM] |  |
| COc1ccc(C(=S)N2CCNCC2)cc1 | inactive |  |
| CN(C)C(CNC(=O)CCCc1c[nH]c2ccccc12)c1ccco1 (centres undefined) | inactive |  |
| CCCNC[C@H](O)COc1ccccc1C(=O)CCc1ccccc1 | inconclusive: -21.6% |  |
| Cc1occc1C(=O)Nc1cccnc1 | inactive |  |
| COC(=O)c1ccc(Oc2nc(Nc3ccc(C)c(C)c3)nc(N(C)C)n2)cc1 |  | inconclusive: 35.5 µM [fluorescent, single point] |
| COc1ccc(C=O)c(OC)c1 | inconclusive: -3.58% [at 46 µM] |  |
| C[C@]12C=CC(=O)C=C1CC[C@@H]1[C@H]3C[C@@H](O)[C@](O)(C(=O)CO)[C@@]3(C)C[C@H](O)[C@]12F | inactive |  |
| COc1ccc(C2=CC(c3sccc3C)n3nnnc3N2)cc1 (centres undefined) | inactive |  |
| O=C(c1ccc(Cl)c(Cl)c1)N1CCC(=O)N(C(COCc2cccc(Cl)c2)Cc2ccccc2)CC1 (centres undefined) |  | inconclusive: 17.8 µM [fluorescent, single point] |
| C[C@H](N[C@@H](C)COc1ccccc1)[C@H](O)c1ccc(O)cc1 | inconclusive: 7.69% |  |
| CCOc1ccc(Cl)cc1CNc1nnnn1C | inconclusive: 3.45% [at 46 µM] |  |
| O=C1C=C(NCc2ccc(Cl)cc2)CCC1 | inactive |  |
| O=C(CSC1=NCCS1)Nc1cccc(F)c1 | inconclusive: -33.9% [at 46 µM] |  |
| Cc1ccc(CSC2=Nc3ccccc3C3=NC(CCC(=O)NC4CCCCC4)C(=O)N23)cc1 (centres undefined) | inactive |  |
| Cn1cnnc1Sc1ccc(C(=O)NCCC23CC4CC(CC(C4)C2)C3)cc1[N+](=O)[O-] | inactive |  |
| CC(=O)Nc1ccc(N/C=C/C(=O)c2ccco2)cc1 | inactive |  |

No new results follow: entries from further up.

| Compound | ratio change, negative = inhibition | Potency |
| --- | --- | --- |
| O=C(c1ccco1)N1CCN(c2nc(C3CC3)nc3c2nnn3Cc2ccccc2Cl)CC1 |  | inconclusive: 35.5 µM [fluorescent, single point] |
| COc1ccc(NC(=O)Cn2cnc3c(nc4n3CCCCC4)c2=O)c(OC)c1 | inactive |  |
| COc1ccc(N2CCN(CCNC(=O)c3ccc4c(c3)[nH]c(=S)n3c5ccccc5nc43)CC2)cc1 | inconclusive: 7.47% [at 46 µM] |  |

Next entries:

| Compound | ratio change, negative = inhibition | Potency |
| --- | --- | --- |
| CCC(C(=O)NC1CCCC1)N(C(=O)c1snc(C(N)=O)c1N)c1ccc2c(c1)OCCO2 (centres undefined) | inconclusive: 15.5% |  |
| Cn1c(SCC(=O)N2CCN(c3ccccc3)CC2)nnc1-c1cc2ccccc2o1 | inconclusive: -15.5% |  |
| COc1ccc(NC(=O)CCCSc2ccccc2)cc1 |  | inconclusive: 28.2 µM [inhibitor, partial curve, poor fit] |
| CCc1c(C(=O)Nc2ccc(OC)cc2)[nH]c(C)c1C(C)=O | inconclusive: -2.12% |  |
| COc1cccc(C(=O)Nc2ccc(-n3nncc3-c3ccccc3)cc2)c1OC | inconclusive: -16% [at 46 µM] |  |
| CN(CC(O)COC(c1ccccc1)c1ccccc1)C1CCCCC1 (centres undefined) | inconclusive: -20% [at 46 µM] |  |
| O=C(Nc1cccc(S(=O)(=O)NCc2ccco2)c1)c1cc(-c2ccc(F)cc2)nc2ccccc12 |  | inconclusive: 35.5 µM [falling, single point] |
| COc1ccc(-c2[nH]ncc2-c2nc(C)cs2)c(O)c1 | inconclusive: -31.3% [at 46 µM] |  |
| CCn1c2ccccc2c2nnc(N3CCN(c4cccc(Cl)c4)CC3)nc21 | inactive |  |
| O=C(O)COc1ccc2c3c(c(=O)oc2c1)CCC3 | inactive |  |
| COc1ccccc1NC(=O)C1=C(C)Nc2nnnn2C1c1ccccn1 (centres undefined) |  | inconclusive: 35.5 µM [falling, single point] |
| O=C(Nc1ccc(Cc2ccncc2)cc1)C1CCC(N2C(=O)C3CC=CCC3C2=O)CC1 (centres undefined) |  | inconclusive: 20 µM [falling, partial curve, poor fit] |
| CCOc1cc(N2CCOCC2)c(OCC)cc1NC(C)C(=O)N1CCN(CC)CC1 (centres undefined) | inconclusive: -18.6% [at 46 µM] |  |
| CC1=C(C(N)=O)C(c2cccc(O)c2)n2ncnc2N1 (centres undefined) | inconclusive: 5.97% [at 46 µM] |  |
| O=C(CCS(=O)(=O)c1cccc2nsnc12)N1CCN(C(=O)c2ccco2)CC1 | inactive |  |
| Cc1ccc2nc(NC(=O)COC(=O)CSc3nc(C)cc(C)n3)sc2c1 | inconclusive: 42.4% |  |
| COc1cc(CNc2ccc3[nH]c(=O)[nH]c3c2)cc(Cl)c1OCC(=O)NC(C)(C)C | inactive |  |
| C=CCNC(=O)c1onc(CSc2ccc(C(C)C)cc2)c1C(=O)O | inconclusive: 9.24% [at 0.0737 µM] |  |
| C/C(=N\NC(=S)Nc1cccc(C)c1)c1cccc(N)c1 | inactive |  |
| C=CCOc1c(Br)cc(CNc2nccs2)cc1OC | inactive |  |
| Oc1ccccc1-c1nnc(SCCN2CCOCC2)n1Cc1ccccc1 | inconclusive: 18.6% |  |
